# Screening data, single-dose tests

Chains of the proteins cited; added tags and fusions are not shown. Residues count along the entry.
UniProt Q8IDJ8, 1-583: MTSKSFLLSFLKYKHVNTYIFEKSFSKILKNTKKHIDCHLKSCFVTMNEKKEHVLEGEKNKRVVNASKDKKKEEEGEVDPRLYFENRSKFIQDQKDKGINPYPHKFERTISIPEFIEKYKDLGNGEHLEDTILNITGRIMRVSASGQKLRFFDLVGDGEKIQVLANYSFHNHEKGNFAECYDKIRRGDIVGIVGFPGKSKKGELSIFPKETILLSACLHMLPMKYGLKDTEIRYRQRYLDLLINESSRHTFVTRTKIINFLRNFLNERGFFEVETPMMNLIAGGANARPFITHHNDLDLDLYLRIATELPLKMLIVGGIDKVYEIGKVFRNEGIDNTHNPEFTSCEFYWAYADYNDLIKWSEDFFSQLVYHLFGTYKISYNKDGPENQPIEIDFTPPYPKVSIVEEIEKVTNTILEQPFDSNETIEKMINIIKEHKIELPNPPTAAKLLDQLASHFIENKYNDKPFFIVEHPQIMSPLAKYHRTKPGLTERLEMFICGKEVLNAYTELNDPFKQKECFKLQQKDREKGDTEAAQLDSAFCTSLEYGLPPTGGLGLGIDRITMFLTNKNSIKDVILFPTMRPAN
UniProt P9WPC5, whole entry: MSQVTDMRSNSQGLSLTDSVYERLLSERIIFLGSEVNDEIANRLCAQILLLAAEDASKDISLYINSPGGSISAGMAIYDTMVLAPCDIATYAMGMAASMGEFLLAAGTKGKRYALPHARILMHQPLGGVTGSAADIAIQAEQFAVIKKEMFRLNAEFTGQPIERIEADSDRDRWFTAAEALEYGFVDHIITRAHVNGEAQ
UniProt P9WPC3, whole entry partner: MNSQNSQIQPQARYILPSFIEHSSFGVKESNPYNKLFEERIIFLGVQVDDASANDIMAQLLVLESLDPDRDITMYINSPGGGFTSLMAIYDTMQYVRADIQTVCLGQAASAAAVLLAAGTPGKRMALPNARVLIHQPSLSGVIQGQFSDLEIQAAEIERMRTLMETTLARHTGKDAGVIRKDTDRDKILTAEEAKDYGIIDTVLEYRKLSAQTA
UniProt P9WFT3, whole entry: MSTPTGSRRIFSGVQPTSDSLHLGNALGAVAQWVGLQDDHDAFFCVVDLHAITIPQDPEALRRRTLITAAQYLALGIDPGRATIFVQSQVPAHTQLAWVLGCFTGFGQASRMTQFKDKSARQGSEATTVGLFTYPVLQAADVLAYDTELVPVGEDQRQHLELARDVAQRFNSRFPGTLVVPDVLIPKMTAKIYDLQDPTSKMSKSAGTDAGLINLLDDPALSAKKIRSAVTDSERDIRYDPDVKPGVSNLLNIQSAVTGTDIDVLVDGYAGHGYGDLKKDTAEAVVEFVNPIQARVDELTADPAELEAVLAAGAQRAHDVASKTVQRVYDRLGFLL

Measurements from “University of Dundee, Small-Polar-MMV Screening Library” (2021), ChEMBL document CHEMBL3988442.

PfKRS1: 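Enzyme assay of the cytosolic lysyl-tRNA synthetase in 384-well plates, read by luminescence. Target: Lysine-tRNA ligase, Plasmodium falciparum 3D7 (UniProt Q8IDJ8). Compounds at 30 µM. Higher reads as stronger inhibition, judged from the few compounds that gave an IC50. Of about 69,000 compounds tested this way, about 49 (0.071%) reached 50% or more in at least one test.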
ClpP1P2: 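ClpP1P2, Mycobacterium tuberculosis (UniProt P9WPC5 and UniProt P9WPC3). Protease assay of ClpP1P2, read by the AMC dye that it sets free. Tested at 50 µM. Higher reads as stronger inhibition, judged from the few compounds that gave an IC50. Most other retested compounds had strongly negative values. About 69,000 compounds were tested under these conditions; 0.015% (about 10) showed 50% or more at least once.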
MtTrpRS: 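Enzyme assay of tryptophanyl-tRNA synthetase; the read-out is not stated. Target: Tryptophan-tRNA ligase, Mycobacterium tuberculosis (UniProt P9WFT3). Compounds at 10 µM. Direction is not recorded; retested compounds ran higher, which suggests that high means inhibition. Of about 65,000 compounds tested this way, about 64 (0.098%) reached 50% or more in at least one test.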

Each number is a percent effect as filed. The record does not define 0% and 100%; most values in the screen are far below 50% and negative numbers occur (in some assays of this library far below -100). Compounds were drawn at random from those tested, without regard to their results. A dash means the value is not listed here; it may have been measured.

structure,PfKRS1,ClpP1P2,MtTrpRS
CC(=O)c1cccc(-n2nc(C(C)=O)c(C(C)=O)c2C)c1,4.376%,-10.05%,-4.465%
CC[C@@]1(O)CCN(C(=O)CN(C)Cc2ccc(F)cc2)C[C@H]1O,1.282%,-8.515%,-4.92%
Nc1cc(N2CCCC(COc3ccc(F)cc3)C2)ncn1 (stereo not given),0.5239%,3.963%,-6.431%
COCCN(Cc1nc2c(cnn2C)c(=O)[nH]1)C(C)c1ccccc1 (stereo not given),-2.121%,-2.413%,-6.484%
Cc1cc(NC(=O)CN2CCc3nn(C)c(=O)cc3C2)on1,6.555%,-5.472%,3.791%
CCCOc1cccc(C(=O)N2CCCC(n3cncn3)C2)c1 (stereo not given),0.4408%,-1.616%,-2.319%
COc1ccc(C(C(=O)O)N2CCCN(C3CCCCC3)CC2)cn1 (stereo not given),9.37%,12.96%,-0.3353%
CCC(C)N(Cc1ccsc1)C(=O)c1ccc2[nH]nnc2c1 (stereo not given),1.056%,-10.99%,6.194%
Cn1c(-c2ccccc2Cl)nc2cc(C(=O)NCCS(C)(=O)=O)cnc21,4.638%,0.7405%,-1.495%
CCC(NC(=O)CC1CCN(CC)CC1)c1cn2cccnc2n1 (stereo not given),6.036%,-4.146%,-2.166%
Cc1ncsc1C(=O)N(C)CCc1ccncc1,3.747%,10.43%,-1.258%
O=C1C=CC=N/C1=C(/O)NCCNS(=O)(=O)N1CCCCCC1,0.3957%,2.535%,-2.408%
CCCc1ccc(CN2CCC3(CCC(=O)N(CCO)C3)CC2)o1,4.667%,-1.429%,1.639%
CCc1noc(C(C)N2CCNCC2)n1 (stereo not given),2.907%,2.539%,-0.5912%
Cc1cccc(C(=O)N2CCCC2)c1NCC(=O)NC1(C#N)CCCC1,3.151%,-0.1776%,-5.348%
CSC(C)CC(=O)N1CCC(n2ccnn2)CC1 (stereo not given),0.1458%,-3.977%,1.206%
C=C(C)COc1ccccc1CNC(CC)c1ccnn1C (stereo not given),1.924%,-14.24%,0.942%
O=C(c1ccco1)N1C[C@H]2CCCN(Cc3cccs3)[C@H]2C1,-1.259%,13.53%,-0.4794%
CCc1nc(CN(C(C)=O)C2CCN(CCc3cccs3)C2)no1 (stereo not given),-0.4795%,-18.86%,10.79%
Cn1nnc2c1CCN(Cc1ccncc1)C2COCC1CC1 (stereo not given),0.688%,1.42%,-1.744%
COc1cccc(S(=O)(=O)NC(=O)COc2c(C)cccc2C)c1,5.507%,5.744%,1.039%
CN(C)C(=O)CC1CCOc2ccccc21 (stereo not given),4.215%,-7.669%,7.163%
COc1c(CNC(C)c2sc(C)nc2C)c(C(C)C)nn1C (stereo not given),-1.212%,-7.851%,4.996%
O=C(CNc1ccc(OC2CCOC2)cc1)NCc1ccco1 (stereo not given),-1.098%,1.445%,1.224%
CCc1cnc2c(c1NCc1cccc(OC)c1)c(=O)n(C)c(=O)n2C,-4.922%,10.67%,3.197%
Cc1nc2ccccc2nc1CN1CCCC1c1c(C)nn(C)c1C (stereo not given),3.17%,9.451%,-3.606%
CC(=O)N1CCCN(C(=O)c2cnn(-c3ccccc3Cl)c2)CC1,-0.4133%,-0.9347%,-1.94%
Cc1sc(C(=O)N(C)S(C)(=O)=O)cc1-c1ccc(F)cc1,4.54%,-0.9728%,-1.534%
Nc1cc(-c2cccs2)nn(CC(=O)NCC2CCCCC2)c1=O,0.3879%,-1.206%,-
CC(C)N(C)Cc1cnc2n1CCN(C(=O)Cc1ccsc1)C2,4.165%,18.37%,0.1767%
CCc1ncnc2c1CCN(Cc1ccc3c(c1)OCO3)CC2,3.201%,-1.042%,3.592%
Cc1cnn(CCNCC(O)COc2ccc3ccccc3c2)c1 (stereo not given),0.06577%,-12.78%,-5.616%
Cc1ccc(S(=O)(=O)NC(=O)CCC2CCCO2)cc1 (stereo not given),0.5717%,-11.56%,-3.814%
Cc1cc(C)c2[nH]c(CN3CCCC(N4CCOCC4)C3)cc(=O)c2c1 (stereo not given),8.804%,-0.6465%,-0.243%
Cc1cccc(NC(=O)N2CCN(Cc3noc(C4CC4)n3)CC2)c1,0.1951%,-6.06%,-6.773%
CCn1nc2c(cc1=O)CN(CCOc1ccc(C#N)cc1)CC2,6.199%,-1.221%,2.062%
Cn1cc(-c2cnc(N3CCOCC3)nc2)cc1C(=O)NCCC#N,-0.7389%,-15.28%,0.1564%
CNS(=O)(=O)c1cccc(C(C)NCc2ccccc2)c1 (stereo not given),4.444%,-13.67%,-0.5629%
CC(C)N1CCC[C@H]1C(=O)NCC1CCN(c2cnn(C)c(=O)c2)CC1,1.305%,-3.776%,0.1347%
Cc1nc(C)n(CC(C)C(=O)N2CCCN(C3CCCC3)CC2)n1 (stereo not given),8.591%,-5.989%,-1.102%
O=C(Cc1ccsc1)N1CCN(CC2CC2)c2ncccc2C1,1.744%,-11.53%,1.289%
Cc1nc(C)n(CC2CCCN2Cc2ccccn2)n1 (stereo not given),3.069%,4.521%,1.058%
Cc1nc(C2(NCc3ccc(C#N)cc3F)CCCC2)no1,0.9279%,-8.552%,3.199%
O=C(c1cnccn1)N1C[C@@H]2C[C@@H](c3nc(C4CC4)cs3)O[C@@H]2C1,-26.81%,-3.693%,1.355%
COCC(=O)N1CCc2nc(C(=O)Nc3cccnc3)sc2CC1,3.331%,1.325%,-4.509%
COCC(=O)NCc1nn(CCN2CCCC2)c(=O)c2ccccc12,2.465%,7.536%,-3.226%
COc1cc(C(=O)N(CCC#N)Cc2ccccn2)cc(OC)c1C,-1.624%,-17.44%,-0.7105%
CCc1c(C)sc2nc3n(CCN4CCOCC4)nc(SC)n3c(=O)c12,6.633%,-12.24%,3.797%
O=C(CCN1CCCC1)N1CC[C@@H](c2ccc3ccccc3c2)[C@H](O)C1,7.799%,-3.967%,-2.434%
O=C(CC1CC1)N1CCC2(CCCN(CCOc3ccccc3)C2)C1 (stereo not given),7.185%,-6.667%,-2.322%
COc1ccc(C)cc1C(C)NCc1cnnn1C (stereo not given),-0.1139%,-14.41%,0.9412%
COc1cccc(CCNCc2c(C)nn(C)c2N(C)C)c1,5.324%,29.09%,3.774%

3 of the entries, repeated:

| structure | PfKRS1 | ClpP1P2 | MtTrpRS |
|---|---|---|---|
| `CCc1ncnc2c1CCN(Cc1ccc3c(c1)OCO3)CC2` | 3.201% | -1.042% | 3.592% |
| `O=C(CNc1ccc(OC2CCOC2)cc1)NCc1ccco1` (stereo not given) | -1.098% | 1.445% | 1.224% |
| `O=C(CCN1CCCC1)N1CC[C@@H](c2ccc3ccccc3c2)[C@H](O)C1` | 7.799% | -3.967% | -2.434% |